Part of at least one peptide drawing is inferred or uncertain, most often the ends. Non-standard residues stand in square brackets, D forms with d. Residues, ends and D or L forms follow the SMILES beside them. pGlu = O=C1CC[C@@H](C(=O)O)N1
Assays:
REO virus type II [1] = experiment: Jerne plaque assay (antibody-forming cells against SRBC) in REO virus-infected new-born NC mice; assay type: in vivo, NC mouse; details: for PFC/10⁶ splenic cells: 1 x 10⁵ PFU/mouse, after 18 days
REO virus type II [2] = experiment: Disorder of glucose tolerance (blood sugar, glucose oxidase method) in REO virus-infected new-born ICR mice; assay type: in vivo, ICR mouse; details: for Diabetes: mice with blood sugar greater than 176 mg/dl regarded as diabetes
REO virus = experiment: Number of splenic cells (lymphocytes and macrophages) in REO virus-infected new-born ICR mice
REO virus type II [3] = experiment: Disorder of glucose tolerance (blood sugar) in REO virus-infected new-born NC mice; assay type: in vivo; details: 10⁵ PFU/mouse
REO virus type II [4] = experiment: Jerne plaque assay in REO virus-infected new-born ICR mice; assay type: in vivo, ICR mouse

C[C@H](NC(=O)[C@@H]1CCC(=O)N1)C(=O)N[C@@H](CCCCN)C(=O)N[C@@H](CO)C(=O)N[C@@H](CCC(N)=O)C(=O)NCC(=O)NCC(=O)N[C@@H](CO)C(=O)N[C@@H](CC(N)=O)C(=O)O [FTS, pGlu-Ala-Lys-Ser-Gln-Gly-Gly-Ser-Asn] ([pGlu]AKSQGGSN-OH)
PFC/10⁶ splenic cells (REO virus type II [1]; FTS 0.1 µg): 19 ± 6 (4 mice) PFC/10⁶ splenic cells | PFC/10⁶ splenic cells (REO virus type II [1]; FTS 1 µg): 41 ± 13 (5 mice) PFC/10⁶ splenic cells | PFC/10⁶ splenic cells (REO virus type II [1]; FTS 10 µg): 41 ± 7 (7 mice) PFC/10⁶ splenic cells | PFC/10⁶ splenic cells (REO virus type II [1]; FTS 10 µg, listed as effective ingredient): 41±7 PFC/10⁶ splenic cells | immune function (plaque assay) (REO virus type II [1]; 10⁴ PFU REO virus, 10 µg/mouse 4 weeks after infection): recovered from the immunity inhibitory state to almost the normal level | PFC/10⁶ spleen cells (REO virus type II [1]; 10⁵ PFU REO virus, FTS 10 µg/mouse given with SRBC 2 weeks after infection, measured 4 days later): 22±5 PFC/10⁶ spleen cells | blood sugar level (REO virus type II [2]; 10⁴ PFU, administered 14 days after infection, 4 days after administration): recovered to the normal level | Diabetes (REO virus type II [2]; FTS 0.1 µg): 33% | Diabetes (REO virus type II [2]; FTS 1 µg): 43% | Diabetes (REO virus type II [2]; FTS 10 µg): 14% | Splenic cells / (mice) x 10⁷ (REO virus; TABLE A, FTS 10 µg 2 weeks after the infection): 6.4 ± 0.5 (5) x 10⁷ | Splenic cells / (mice) x 10⁷ (REO virus; TABLE B, FTS 0.1 µg 4 weeks after the infection): 28.2 ± 1.5 (6) x 10⁷ | Splenic cells / (mice) x 10⁷ (REO virus; TABLE B, FTS 1 µg 4 weeks after the infection): 17.8 ± 1.0 (7) x 10⁷ | Splenic cells / (mice) x 10⁷ (REO virus; TABLE B, FTS 10 µg 4 weeks after the infection): 14.0 ± 1.5 (7) x 10⁷ | blood sugar level (REO virus type II [3]): obviously restored to the normal level | PFC/10⁶ splenic cells (REO virus type II [4]; 1 x 10⁴ PFU/mouse, FTS 10 µg/mouse, 18 days): 334 ± 26 (5 mice) PFC/10⁶ splenic cells | immunological response capacity (REO virus type II [4]; 10⁴ PFU, 10 µg/mouse, 18 days after the infection of virus): recovered the immunological response capacity to the same level as that of the immunological response capacity of untreated mice | PFC/10⁶ splenic cells (REO virus type II [4]; 10⁴ PFU, FTS 0.1 µg about 4 weeks after infection): 31 ± 13 (6 mice) PFC/10⁶ splenic cells | PFC/10⁶ splenic cells (REO virus type II [4]; 10⁴ PFU, FTS 1 µg about 4 weeks after infection): 171 ± 21 (7 mice) PFC/10⁶ splenic cells | PFC/10⁶ splenic cells (REO virus type II [4]; 10⁴ PFU, FTS 10 µg about 4 weeks after infection): 253 ± 22 (7 mice) PFC/10⁶ splenic cells
